{
  "source": "patent US20260193531A1",
  "about": "“LIQUID WEIGHTING AGENTS FOR OIL-BASED FLUIDS” (Albemarle Corporation, priority 2022, published 2026)",
  "data": [
    {"assay": "Total gas production in the anaerobic biodegradation method (pressure transducer)", "settings": "Duration 275 days", "units": {"Total gas production": "mL"}, "values": [
      {"smiles": "CC(C)CCCC(C)CCCC(C)CCCCC(C)CCCC(C)CCCC(C)C", "note": "(centres unmarked) [squalane]", "Total gas production": 24.97},
      {"smiles": "CCCCCCCC/C=C\\CCCCCCCC(=O)OCC", "note": "[ethyl oleate]", "Total gas production": 126.03},
      {"smiles": "C=CCCCCCCCCCCCCCC", "note": "[1-hexadecene]", "Total gas production": 82.35}
    ]},
    {"assay": "Closed-bottle anaerobic biodegradation test, EPA Method 1647 (275 days)", "settings": "Pass/Fail, Duration 67 days", "procedure": "(§1) Anaerobic biodegradation testing. […] For each substance, four samples were run. Each test was compared to separate standard samples containing ethyl oleate, squalane, 1-hexadecene, C16-18 internal olefin, or no additive. To pass the test, the sample must have more net biodegradation than the C16-18 internal olefin. The testing procedure was as follows: • 1. Each test mixture was prepared by combining with 2000 mg carbon (sample) per kg of natural sediment; 30 grams of the mixture were used for each sample run. The carbon content of the sample was measured before mixing the sample with the sediment. […] After a bottle was capped, a nitrogen sparge was employed to remove air in the headspace of the bottle before incubation was started. • 3. During the incubation period, the sample is kept at a constant temperature of 29±1° C. • 4. […] Each sample was brought to ambient temperature to make each measurement. Gas production was measured with a pressure gauge, and barometric pressure was also measured at the time of measurement to make volume corrections.", "values": [
      {"smiles": "CC(C)C(=O)OCC(Br)=CBr", "note": "[2,3-dibromoallyl 2-methylpropanoate]", "Result": "Fail"},
      {"smiles": "CC(C)C(=O)OC/C(Br)=C(\\Br)COC(=O)C(C)C", "note": "[(2E)-2,3-dibromobut-2-ene-1,4-diyl bis(2-methylpropanoate)]", "Result": "Fail"},
      {"smiles": "CCCCCC(=O)OCC(CBr)(CBr)CBr", "note": "[tribromoneopentyl hexanoate, 3-bromo-2,2-bis(bromomethyl)propyl hexanoate]", "Result": "Fail"}
    ]},
    {"assay": "Closed-bottle anaerobic biodegradation test, EPA Method 1647 (275 days)", "settings": "Pass/Fail, Duration 150 days", "procedure": "as §1", "values": [
      {"smiles": "CCCCC(=O)OCC(CBr)(CBr)CBr", "note": "[tribromoneopentyl valerate, 3-bromo-2,2-bis(bromomethyl)propyl pentanoate]", "Result": "Fail"},
      {"smiles": "CC(C)C(=O)OCC(CBr)(CBr)CBr", "note": "[tribromoneopentyl 2-methylpropanoate, 3-bromo-2,2-bis(bromomethyl)propyl 2-methylpropanoate]", "Result": "Fail"}
    ]},
    {"assay": "Closed-bottle anaerobic biodegradation test, EPA Method 1647 (275 days)", "settings": "Pass/Fail, Duration 275 days", "procedure": "as §1", "values": [
      {"smiles": "O=C(CBr)OC/C=C\\COC(=O)CBr", "note": "[(2Z)-but-2-ene-1,4-diyl bis(bromoacetate)]", "Result": "Fail"},
      {"smiles": "CCCCC(=O)OCc1cc(Br)cc(Br)c1", "note": "[(3,5-dibromophenyl)methyl pentanoate]", "Result": "Fail"},
      {"smiles": "CCC(=O)OC/C(Br)=C(\\Br)COC(=O)CC", "note": "[(2E)-2,3-dibromobut-2-ene-1,4-diyl bis(propanoate)]", "Result": "Pass"},
      {"smiles": "CCCC(=O)OCc1cc(Br)cc(Br)c1", "note": "[(3,5-dibromophenyl)methyl butyrate]", "Result": "Fail"},
      {"smiles": "CCCCCC(=O)OCC(CBr)(CBr)COC(=O)CCCCC", "note": "[2,2-bis(bromomethyl)1,3-propanediol-1,3-dihexanoate]", "Result": "Fail"},
      {"smiles": "O=C(CBr)OCC(COC(=O)CBr)OC(=O)CBr", "note": "[propane-1,2,3-triyl tris(bromoacetate)]", "Result": "Fail"}
    ]}
  ]
}
